Experimental data: article PMC5465499
These are yes or no findings as the source states them, for the method shown. In cells and extracts the contact can be indirect. A result given as binding can be weak or reduced; the word gives no strength.

Chains of the proteins cited; added tags and fusions are not shown. Lines headed by an entry give the natural chain unless they say otherwise; changes in a name come on top.
UniProt Q9EP80: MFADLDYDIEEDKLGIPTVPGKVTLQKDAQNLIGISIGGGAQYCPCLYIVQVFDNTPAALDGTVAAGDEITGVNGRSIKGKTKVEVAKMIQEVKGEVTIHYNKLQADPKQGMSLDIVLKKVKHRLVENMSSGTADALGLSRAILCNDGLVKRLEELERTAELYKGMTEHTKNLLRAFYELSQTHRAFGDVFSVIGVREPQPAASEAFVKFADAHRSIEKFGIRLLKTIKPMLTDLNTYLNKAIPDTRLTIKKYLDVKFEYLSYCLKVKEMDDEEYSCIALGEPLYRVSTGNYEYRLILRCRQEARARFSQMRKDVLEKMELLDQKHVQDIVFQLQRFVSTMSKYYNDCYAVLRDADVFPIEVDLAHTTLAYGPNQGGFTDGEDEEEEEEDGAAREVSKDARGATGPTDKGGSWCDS
UniProt Q9UKV8: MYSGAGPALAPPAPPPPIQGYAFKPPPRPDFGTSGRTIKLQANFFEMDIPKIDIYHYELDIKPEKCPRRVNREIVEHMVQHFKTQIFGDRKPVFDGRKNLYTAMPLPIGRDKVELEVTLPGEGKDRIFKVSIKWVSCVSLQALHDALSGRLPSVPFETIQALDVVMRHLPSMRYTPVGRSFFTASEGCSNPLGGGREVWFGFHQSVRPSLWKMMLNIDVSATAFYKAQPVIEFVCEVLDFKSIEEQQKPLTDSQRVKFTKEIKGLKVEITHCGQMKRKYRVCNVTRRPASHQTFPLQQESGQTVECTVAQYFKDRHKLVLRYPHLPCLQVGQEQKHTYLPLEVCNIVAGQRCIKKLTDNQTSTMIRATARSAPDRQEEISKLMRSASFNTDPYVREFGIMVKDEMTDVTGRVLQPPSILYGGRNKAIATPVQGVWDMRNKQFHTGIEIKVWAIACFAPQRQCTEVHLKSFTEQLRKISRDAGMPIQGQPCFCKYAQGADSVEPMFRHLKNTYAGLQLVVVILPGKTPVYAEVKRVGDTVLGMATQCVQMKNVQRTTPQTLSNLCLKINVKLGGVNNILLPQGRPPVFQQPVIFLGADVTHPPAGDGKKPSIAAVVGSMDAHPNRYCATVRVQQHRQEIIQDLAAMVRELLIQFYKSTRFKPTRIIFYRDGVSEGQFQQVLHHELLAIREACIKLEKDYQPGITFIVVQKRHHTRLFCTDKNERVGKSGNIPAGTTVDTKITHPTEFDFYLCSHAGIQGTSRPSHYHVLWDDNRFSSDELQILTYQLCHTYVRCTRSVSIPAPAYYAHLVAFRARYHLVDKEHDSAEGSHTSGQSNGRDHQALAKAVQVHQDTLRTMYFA

Target: FLAG-PICK1 D3N (UniProt Q9EP80)
Experiment: co-IP; anti-FLAG immunoprecipitation from transfected HEK293 cell extracts in IP buffer (0.5% Triton X-100, 150 mM NaCl, 20 mM HEPES pH 7.4), 4 °C; Western blot

For Myc-Ago2 (from UniProt Q9UKV8 1-859), the binding was “binds”.
